{"sequences": {"note": "Chains of the proteins cited; added tags and fusions are not shown. Lines headed by an entry give the natural chain unless they say otherwise; changes in a name come on top.", "UniProt Q96524": "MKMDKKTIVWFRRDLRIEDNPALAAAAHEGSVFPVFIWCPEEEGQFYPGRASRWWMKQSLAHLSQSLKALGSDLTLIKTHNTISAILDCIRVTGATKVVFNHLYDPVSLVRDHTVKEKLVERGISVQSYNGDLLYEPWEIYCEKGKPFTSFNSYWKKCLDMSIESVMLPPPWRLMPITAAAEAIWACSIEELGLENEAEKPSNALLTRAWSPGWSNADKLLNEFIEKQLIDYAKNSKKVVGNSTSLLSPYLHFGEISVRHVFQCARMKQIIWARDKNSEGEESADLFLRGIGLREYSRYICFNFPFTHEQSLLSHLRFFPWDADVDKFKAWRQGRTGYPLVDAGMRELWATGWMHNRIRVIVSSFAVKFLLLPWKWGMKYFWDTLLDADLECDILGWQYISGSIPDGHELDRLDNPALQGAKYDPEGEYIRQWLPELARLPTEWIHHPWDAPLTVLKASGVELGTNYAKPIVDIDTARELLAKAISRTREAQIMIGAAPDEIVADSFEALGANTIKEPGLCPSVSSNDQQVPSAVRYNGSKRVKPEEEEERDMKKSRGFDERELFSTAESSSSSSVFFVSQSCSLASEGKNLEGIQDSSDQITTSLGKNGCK", "UniProt O82343": "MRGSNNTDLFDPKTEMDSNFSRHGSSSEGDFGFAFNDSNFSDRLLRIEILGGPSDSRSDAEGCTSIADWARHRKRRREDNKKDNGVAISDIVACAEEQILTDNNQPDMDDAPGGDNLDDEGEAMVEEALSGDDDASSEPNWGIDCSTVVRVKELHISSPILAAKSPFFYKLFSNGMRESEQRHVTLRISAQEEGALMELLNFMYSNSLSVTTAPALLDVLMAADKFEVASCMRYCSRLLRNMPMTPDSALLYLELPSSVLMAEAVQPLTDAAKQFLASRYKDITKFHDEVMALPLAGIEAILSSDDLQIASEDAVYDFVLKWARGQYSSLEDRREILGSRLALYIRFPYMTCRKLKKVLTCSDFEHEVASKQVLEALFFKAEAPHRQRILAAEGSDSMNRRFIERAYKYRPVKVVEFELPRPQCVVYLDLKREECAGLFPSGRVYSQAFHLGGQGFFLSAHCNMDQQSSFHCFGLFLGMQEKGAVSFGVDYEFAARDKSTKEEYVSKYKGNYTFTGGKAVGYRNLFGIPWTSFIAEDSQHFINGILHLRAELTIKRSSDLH", "UniProt Q9FPW6": "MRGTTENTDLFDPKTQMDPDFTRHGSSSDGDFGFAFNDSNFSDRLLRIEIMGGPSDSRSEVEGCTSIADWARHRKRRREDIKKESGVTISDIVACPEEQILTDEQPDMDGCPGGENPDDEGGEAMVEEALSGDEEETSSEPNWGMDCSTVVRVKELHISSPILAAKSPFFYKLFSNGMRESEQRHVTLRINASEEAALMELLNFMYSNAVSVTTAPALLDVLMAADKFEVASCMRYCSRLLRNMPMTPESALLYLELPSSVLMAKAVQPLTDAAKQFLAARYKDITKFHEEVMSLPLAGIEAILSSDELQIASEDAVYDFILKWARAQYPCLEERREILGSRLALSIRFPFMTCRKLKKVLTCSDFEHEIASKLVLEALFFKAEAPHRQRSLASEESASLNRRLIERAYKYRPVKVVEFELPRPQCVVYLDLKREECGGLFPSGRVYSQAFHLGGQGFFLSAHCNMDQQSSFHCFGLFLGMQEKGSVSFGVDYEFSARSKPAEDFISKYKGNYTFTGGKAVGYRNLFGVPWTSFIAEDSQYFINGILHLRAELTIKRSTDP"}, "source": "paper PMC8042123", "key": {"[1]": {"target": "CCE2 (CRY2 C-terminal extension), Flag-tagged (Arabidopsis thaliana) (UniProt Q96524)", "assay": "co-IP; HEK293T cells co-transfected (with PPK1, PPK1^D267N or SPA1 as indicated), blue light 100 μmol m^-2 s^-1 for 2 h; lysis in 1% Brij buffer, Anti-FLAG M2 affinity gel 4 °C 2 h, elution with 3xFlag peptide, immunoblot"}, "[2]": {"target": "CRY2^P532L, Flag-tagged, phosphorylated (co-expressed with PPK1, blue light) (Arabidopsis thaliana) (UniProt Q96524)", "assay": "co-IP; HEK293T cells co-transfected (with PPK1, PPK1^D267N or SPA1 as indicated), blue light 100 μmol m^-2 s^-1 for 2 h; lysis in 1% Brij buffer, Anti-FLAG M2 affinity gel 4 °C 2 h, elution with 3xFlag peptide, immunoblot"}, "[3]": {"target": "Flag-CRY2^D387A (Arabidopsis thaliana) (UniProt Q96524)", "assay": "co-IP; HEK293T cells co-transfected (with PPK1, PPK1^D267N or SPA1 as indicated), blue light 100 μmol m^-2 s^-1 for 2 h; lysis in 1% Brij buffer, Anti-FLAG M2 affinity gel 4 °C 2 h, elution with 3xFlag peptide, immunoblot"}, "[4]": {"target": "cLUC-CRY2 (Arabidopsis thaliana) (UniProt Q96524)", "assay": "split reporter; split-luciferase complementation in N. benthamiana leaves, pairs co-expressed with FGFP-PPK1"}, "[5]": {"target": "CRY2^D387A, BiFC fusion (Arabidopsis thaliana) (UniProt Q96524)", "assay": "split reporter; BiFC (nYFP/cCFP) in Arabidopsis leaves infiltrated with Agrobacterium; confocal microscopy, Hoechst 33342 for nuclei"}, "[6]": {"target": "CRY2, BiFC fusion (Arabidopsis thaliana) (UniProt Q96524)", "assay": "split reporter; BiFC (nYFP/cCFP) in Arabidopsis leaves infiltrated with Agrobacterium; confocal microscopy, Hoechst 33342 for nuclei"}, "[7]": {"target": "Flag-LRB1 (Arabidopsis thaliana) (UniProt O82343)", "assay": "co-IP; HEK293T cells co-transfected (with PPK1, PPK1^D267N or SPA1 as indicated), blue light 100 μmol m^-2 s^-1 for 2 h; lysis in 1% Brij buffer, Anti-FLAG M2 affinity gel 4 °C 2 h, elution with 3xFlag peptide, immunoblot"}, "[8]": {"target": "FGFP-CRY2 (Flag-GFP-tagged CRY2) (Arabidopsis thaliana) (UniProt Q96524)", "assay": "co-IP; 7-day-old transgenic Arabidopsis seedlings, etiolated then blue light (100 μmol m^-2 s^-1) for the indicated time, or grown in long days or continuous white light; GFP-trap beads; anti-Flag and anti-Myc blots"}}, "note": "No constants are given. Whether binding was seen depends on the method and setting. In cells and extracts the contact can be indirect. For some of these results: A result given as binding can be weak or reduced; the word gives no strength."}
{"substance": "Myc-LRB2 (from UniProt Q9FPW6)", "values": [{"measurement": "binding", "setting": "[1]", "result": "binds"}, {"measurement": "binding", "setting": "[2]", "result": "binds"}, {"measurement": "binding", "setting": "[3]", "result": "no binding"}]}
{"substance": "LRB1ΔBTB-nLUC (from UniProt O82343)", "values": [{"measurement": "binding", "setting": "[4]", "result": "binds"}]}
{"substance": "LRB2, BiFC fusion (from UniProt Q9FPW6)", "values": [{"measurement": "binding", "setting": "[5]", "result": "no binding"}]}
{"substance": "LRB2ΔBTB-nLUC (from UniProt Q9FPW6)", "values": [{"measurement": "binding", "setting": "[4]", "result": "binds"}]}
{"substance": "LRB1, BiFC fusion (from UniProt O82343)", "values": [{"measurement": "binding", "setting": "[6]", "result": "binds"}, {"measurement": "binding", "setting": "[5]", "result": "no binding"}]}
{"substance": "phosphorylated CRY2 (co-expressed with PPK1, blue light; prey of Flag-LRB1 and Flag-LRB2) (from UniProt Q96524 1-612)", "values": [{"measurement": "binding", "setting": "[7]", "result": "binds"}]}
{"substance": "Myc-LRB1 (transgenic Arabidopsis) (from UniProt O82343)", "values": [{"measurement": "binding", "setting": "[8]", "result": "binds"}]}
